Data as given in PubChem BioAssay AID1224830 (NIAID, 2016).

Aim: 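Genes whose knock-down alters the TNF-alpha reporter response to LPS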 (primary screen)
System: human THP-1 monocytic leukaemia cells, TNF dual-luciferase reporter clone, PMA-differentiated to macrophage-like cells
Reagents: siRNA pool against human genes, 50 nM
Timing: LPS for 4 h, given about 3 days after siRNA transfection
Challenge: bacterial LPS (TLR4 ligand), 10 ng/ml
Read-out: 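Ratio of firefly to renilla light, scaled to the plate median and expressed as a robust z-score per replicate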
Scale: TNF reporter robust z-score: higher = stronger TNF reporter response to LPS
Hit rule: 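Each well counts as active if its z-score is over 2.8 or under -1.5; controls are left without a call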
This is a random part of about 18,000 reagents. About 2,900 of all reagents (16%) were called active. 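Calls are made per well; low scores hint the gene aids the LPS response, high scores that it dampens it.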 Repeated entries: four replicate wells of each siRNA pool.

Target gene	PubChem SID	TNF reporter robust z-score	Call
DUSP19	SID315462164	0.54	inactive
DUSP19	SID315462164	0.24	inactive
DUSP19	SID315462164	1.28	inactive
DUSP19	SID315462164	0.59	inactive
SPATA9	SID315460118	0.47	inactive
SPATA9	SID315460118	0.1	inactive
SPATA9	SID315460118	-0.22	inactive
SPATA9	SID315460118	0.11	inactive
QRFPR	SID315460197	-0.7	inactive
QRFPR	SID315460197	0.97	inactive
QRFPR	SID315460197	-0.34	inactive
QRFPR	SID315460197	-0.19	inactive
TMC3	SID315464129	-1.23	inactive
TMC3	SID315464129	-1.37	inactive
TMC3	SID315464129	-1.32	inactive
TMC3	SID315464129	-0.34	inactive
UNG	SID315452076	-0.34	inactive
UNG	SID315452076	-0.07	inactive
UNG	SID315452076	0.3	inactive
UNG	SID315452076	0.92	inactive
TSLIG2	SID315459194	1.06	inactive
TSLIG2	SID315459194	-0.26	inactive
TSLIG2	SID315459194	-0.71	inactive
TSLIG2	SID315459194	-1.27	inactive
NCK2	SID315452561	0.27	inactive
NCK2	SID315452561	0.72	inactive
NCK2	SID315452561	1.02	inactive
NCK2	SID315452561	1.18	inactive
SLC6A20	SID315457129	-1.6	active
SLC6A20	SID315457129	-1.33	inactive
SLC6A20	SID315457129	-0.53	inactive
SLC6A20	SID315457129	-0.78	inactive

Next part; the last 2 above are carried over.
Target gene	PubChem SID	TNF reporter robust z-score	Call
SLC6A20	SID315457129	-0.53	inactive
SLC6A20	SID315457129	-0.78	inactive
TTC38	SID315457350	0.18	inactive
TTC38	SID315457350	0.31	inactive
TTC38	SID315457350	-0.47	inactive
TTC38	SID315457350	0.95	inactive
CBFA2T2	SID315453075	0.43	inactive
CBFA2T2	SID315453075	-0.11	inactive
CBFA2T2	SID315453075	-0.36	inactive
CBFA2T2	SID315453075	0.66	inactive
ZNF444	SID315457583	-1.58	active
ZNF444	SID315457583	-1.74	active
ZNF444	SID315457583	-1.57	active
ZNF444	SID315457583	-1.63	active
AKR1D1	SID315451629	1.9	inactive
AKR1D1	SID315451629	1.63	inactive
AKR1D1	SID315451629	2.22	inactive
AKR1D1	SID315451629	1.61	inactive
MRPS24	SID315459053	-1.18	inactive
MRPS24	SID315459053	-1.28	inactive
MRPS24	SID315459053	-1.13	inactive
MRPS24	SID315459053	-0.98	inactive
MAGEA4	SID315449855	-0.14	inactive
MAGEA4	SID315449855	-0.01	inactive
MAGEA4	SID315449855	-0.26	inactive
MAGEA4	SID315449855	0.24	inactive
ATP2C2	SID315453671	-0.29	inactive
ATP2C2	SID315453671	0.41	inactive
ATP2C2	SID315453671	-0.37	inactive
XCR1	SID315448988	-0.65	inactive
XCR1	SID315448988	-0.24	inactive
XCR1	SID315448988	-0.98	inactive
XCR1	SID315448988	-0.13	inactive
RANBP9	SID315453775	-0.67	inactive
RANBP9	SID315453775	-1.12	inactive
RANBP9	SID315453775	0.04	inactive
CPZ	SID315452632	-0.41	inactive
CPZ	SID315452632	1.72	inactive
CPZ	SID315452632	-0.26	inactive
CPZ	SID315452632	-1.05	inactive
TXNDC9	SID315453890	-0.4	inactive
TXNDC9	SID315453890	0.66	inactive
TXNDC9	SID315453890	-0.14	inactive
TXNDC9	SID315453890	0.19	inactive
SORCS2	SID315458449	0	inactive
SORCS2	SID315458449	0.94	inactive
SORCS2	SID315458449	0.53	inactive
SORCS2	SID315458449	-0.19	inactive
